This passage reports cell count results from the supplement of paper PMC12462457.

The assay relates to OVCAR8. As to the kind of experiment: cell count relative to DMSO vehicle (fold change); higher = more surviving senescent cells (less killing). The settings on record: senescence inducer: cisplatin 10 µM 48 h, then 6 d recovery (CP senescent), exposure time 24 h.

Molecules are shown by their SMILES. Structures can show the parent of a compound that is named as a salt. ± gives the standard deviation of the averaged measurements. The list shows a part of the results. Single values are uncertain here, since repeats match poorly.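 Imaging of DAPI-stained nuclei was used to count cells; those without phalloidin-stained cytoplasm were treated as dead and excluded. Every well's count was divided by the median of same-plate vehicle wells, then averaged across two replicate plates.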

In turn, `O=C(NC1CCNCC1)c1n[nH]cc1NC(=O)c1c(Cl)cccc1Cl` yielded a cell count (compound dose 1 µM) of 0.979 ± 0.016 and a cell count (compound dose 5 µM) of 0.74 ± 0.2.
In the case of `CC(=O)Cc1cc(=O)c2c(C)cc(O)c([C@@H]3O[C@H](CO)[C@@H](O)[C@H](O)[C@H]3O)c2o1` [Aloesin], the cell count reads like this: (compound dose 1 µM) 1.383 ± 0.0064; (compound dose 5 µM) 1.39 ± 0.2.
Turning to `CC[C@@H](N)CNc1ccnc(-c2cc(-c3cnn(C)c3)ccc2O)n1`, the cell count worked out at 1.15 ± 0.042 (compound dose 1 µM) and 0.544 ± 0.24 (compound dose 5 µM).
As to `O=C(O)/C=C/c1ccc(-c2ccc(O)c(C34CC5CC(CC(C5)C3)C4)c2)cc1` [Adarotene], the cell count (compound dose 1 µM) was 1.02 ± 0.042 and the cell count (compound dose 5 µM) turned out to be 0.8815 ± 0.0021.
As to `Oc1cccc(O)c1O` [Pyrogallol], the cell count turned out to be 1.06 ± 0.0071 (compound dose 1 µM) and 1.11 ± 0.22 (compound dose 5 µM).
For `COC1=CC(=O)C[C@@H](C)[C@]12Oc1c(Cl)c(OC)cc(OC)c1C2=O` [Griseofulvin], the cell count is 1.14 ± 0.042 (compound dose 1 µM) and 0.895 ± 0.17 (compound dose 5 µM).
Turning to `Cn1cc(-c2cnc(N)c3c(-c4ccc5c(c4)CCN5C(=O)Cc4ccccc4)csc23)cn1`, the cell count is, setting by setting: (compound dose 1 µM) 1.02 ± 0.034; (compound dose 5 µM) 0.779 ± 0.081.
For the compound `CC(C)(C)c1cc(/C=C(\C#N)C(N)=S)cc(C(C)(C)C)c1O` [Tyrphostin AG 879], the cell count stood at 1.208 ± 0.012 (compound dose 1 µM) and 0.826 ± 0.12 (compound dose 5 µM).
In the case of `Fc1ccc(-n2cc(CCCCN3CCC4(CC3)OCc3ccccc34)c3ccccc32)cc1` [Siramesine (hydrochloride)], the cell count was 1.27 ± 0.076 (compound dose 1 µM) and 0.773 ± 0.36 (compound dose 5 µM).
On the same counts, the results for `COc1cccc(OCCCN)c1-c1cc(Nc2cnc(C#N)cn2)n[nH]1` [Prexasertib] are 0.384 ± 0.072 and 0.276 ± 0.056.
On the same counts, the results for `N=C1S/C(=C\c2ccc(-c3ccc4c(c3)C(=O)NC4=O)o2)C(=O)N1c1ccc(Br)cc1` [Bioymifi] are 1.32 ± 0.17 and 1.24 ± 0.019.
Take `CC(=O)Nc1ccc(C2=NNC(=O)C[C@H]2C)cc1`: the cell count is, setting by setting: (compound dose 1 µM) 1.02 ± 0.079; (compound dose 5 µM) 0.798 ± 0.037.
`O=c1c(N=Nc2nccs2)c(-c2ccccc2)[nH]n1-c1nc(-c2ccccc2)cs1` showed a cell count (compound dose 1 µM) of 1.19 ± 0.18 and a cell count (compound dose 5 µM) of 1.22 ± 0.4.
In the case of `COc1cc(C[C@H]2C(=O)OC[C@@H]2Cc2ccc(OC)c(OC)c2)ccc1O` [Arctigenin], the cell count (compound dose 1 µM) worked out at 1.05 ± 0.12 and the cell count (compound dose 5 µM) was determined as 1.16 ± 0.19.
As for `CO[C@H]1CC[C@H](N2C(=O)CNc3ncc(-c4ccc(C(C)(C)O)nc4)nc32)CC1`, the cell count amounted to 1.04 ± 0.043 (compound dose 1 µM) and 0.867 ± 0.17 (compound dose 5 µM).
For the compound `COc1ccc(NS(=O)(=O)c2c(F)c(F)c(F)c(F)c2F)cc1F` [Batabulin (sodium)], the cell count came out at 0.65 ± 0.11 (compound dose 1 µM) and 0.515 ± 0.1 (compound dose 5 µM).
`COc1ccc(NS(=O)(=O)c2c(F)c(F)c(F)c(F)c2F)cc1F` [Batabulin]: the cell count (compound dose 1 µM) came to 0.684 ± 0.19 and the cell count (compound dose 5 µM) is 0.296 ± 0.1.
On the same counts, the results for `Cc1nc[nH]c1CN1CCN(C(=O)N[C@@H](CC(C)C)C(=O)O)[C@@H](Cc2ccccc2)C1=O` are 1.12 ± 0.017 and 0.631 ± 0.1.
Take `CC(C)C(C(=O)O)N1C(=O)C(=Cc2ccc(Br)cc2)SC1=S` (stereo not drawn): the cell count runs as follows: (compound dose 1 µM) 1.19 ± 0.17; (compound dose 5 µM) 1.14 ± 0.16.
For the compound `Nc1ncnc2c1c(-c1cccc(OCc3ccccc3)c1)cn2C1CC(CN2CCCC2)C1` (stereo not drawn), the cell count is, setting by setting: (compound dose 1 µM) 1.21 ± 0.033; (compound dose 5 µM) 1.01 ± 0.096.
`CC(=O)O[C@H]1CC[C@]2(C)[C@H]3CC=C4[C@@H]5CC(C)(C)CC[C@]5(C(=O)O)CC[C@@]4(C)[C@]3(C)CC[C@H]2C1(C)C`: the cell count runs as follows: (compound dose 1 µM) 1.26 ± 0.32; (compound dose 5 µM) 1.15 ± 0.03.
For the compound `Cc1cc2ncnn2cc1Nc1ncc2c(n1)n(C1CCOCC1)c(=O)n2C`, the cell count is, setting by setting: (compound dose 1 µM) 0.934 ± 0.21; (compound dose 5 µM) 1.02 ± 0.016.
Regarding `C[C@@H]1CC[C@]2(C(=O)O[C@@H]3O[C@H](CO)[C@@H](O)[C@H](O)[C@H]3O)CC[C@]3(C)C(=CC[C@@H]4[C@@]5(C)CC[C@H](O[C@@H]6OC[C@H](O)[C@H](O)[C@H]6O)C(C)(C)[C@@H]5CC[C@]43C)[C@@H]2[C@]1(C)O` [Ziyuglycoside I], the cell count (compound dose 1 µM) came out at 1.07 ± 0.1 and the cell count (compound dose 5 µM) is 0.616 ± 0.09.
The corresponding values for `O=C(Nc1cc(Cl)cc2c1[nH]c1cnccc12)c1cccnc1` are 0.76 ± 0.46 and 1.08 ± 0.018.
For the compound `O=S(=O)(NCCN1CCNCC1)c1ccc(NC2CCCCC2)c(NCc2ccccc2)c1` [UAMC-3203 hydrochloride], the cell count by setting is: (compound dose 1 µM) 0.991 ± 0.082; (compound dose 5 µM) 0.748 ± 0.15.
In the case of `COc1cc(N2CCC(N3CCN(C)CC3)CC2)ccc1Nc1ncc(Cl)c(Nc2ccccc2S(=O)(=O)C(C)C)n1`, the cell count by setting is: (compound dose 1 µM) 0.901 ± 0.024; (compound dose 5 µM) 0.799 ± 0.015.
Turning to `CC(C)c1nc(CN(C)C(=O)N[C@H](C(=O)N[C@@H](Cc2ccccc2)C[C@H](O)[C@H](Cc2ccccc2)NC(=O)OCc2cncs2)C(C)C)cs1` [Ritonavir], the cell count turned out to be 0.986 ± 0.061 (compound dose 1 µM) and 0.566 ± 0.28 (compound dose 5 µM).
On to `COc1ccc(CCCOC(Cn2ccnc2)c2ccc(OC)cc2)cc1` (stereo not drawn), for which the cell count (compound dose 1 µM) was 1.08 ± 0.019 and the cell count (compound dose 5 µM) was found to be 0.746 ± 0.24.
In turn, `COc1c(O)cc2c(c1O)[C@@H]1O[C@H](CO)[C@@H](O)[C@H](O)[C@H]1OC2=O` [Bergenin] returned a cell count (compound dose 1 µM) of 0.7785 ± 0.005 and a cell count (compound dose 5 µM) of 0.729 ± 0.027.
Compound `Clc1cccc(CN=C2Nc3ccccc3NC23CCNCC3)c1` [Liproxstatin-1] displayed a cell count (compound dose 1 µM) of 1.1 ± 0.083 and a cell count (compound dose 5 µM) of 0.948 ± 0.19.
On the same counts, the results for `C[C@H]1[C@H](C)CC[C@]2(C(=O)O)CC[C@]3(C)C(=CC[C@@H]4[C@@]5(C)C[C@@H](O)[C@H](O)[C@@](C)(CO)[C@@H]5[C@H](O)C[C@]43C)[C@H]12` [Madecassic acid] are 0.905 ± 0.12 and 0.749 ± 0.088.
As to `CNc1ccc([N+](=O)[O-])c(Nc2ccc3[nH]ncc3c2)n1`, the cell count was determined as 1.14 ± 0.081 (compound dose 1 µM) and 1.14 ± 0.11 (compound dose 5 µM).
For the compound `O=C(O)CCC(=O)c1ccc(-c2ccccc2)cc1`, the cell count stood at 0.857 ± 0.037 (compound dose 1 µM) and 0.658 ± 0.22 (compound dose 5 µM).
On to `CCOC(=O)c1ccc(NC2CCCCC2)c(N)c1` [Ferrostatin-1], for which the cell count by setting is: (compound dose 1 µM) 1 ± 0.16; (compound dose 5 µM) 0.452 ± 0.18.
